Measured values: US9493420B2, “Quinoline derivatives and uses thereof” (Portland State University, priority 2005, dated 2016)

Test system: mitogen-induced murine spleen lymphocytes
Format: cell-based
Settings: for Therapeutic Index D6: ratio of cytotoxicity/IC50 for P. falciparum D6; for Therapeutic Index Dd2: ratio of cytotoxicity/IC50 for P. falciparum Dd2
Procedure: Mouse spleen lymphocytes were isolated from C57B1/6J mice by teasing tissues on a metallic sieve screen. […] Two hundred (200) μl isolated cells were then seeded in separate wells of a 96-well flat-bottom tissue culture plate at a density of 2×10^5 cells per well. […] After 72 hours incubation in a humidified atmosphere at 37° C. and 5% CO2, a solution of resazurin PBS was added to a final concentration 10 μM, and the plates were returned to the incubator for another 24 hours. Resazurin is a substrate which changes color in response to metabolic activity (such as, living cells). […] LC50 values were determined from plots of florescence versus drug concentration using non-linear regression by Prism software.

Row | Structure (SMILES) | Therapeutic Index D6 | Therapeutic Index Dd2
1 | CCN1CCN(c2ccnc3cc(Cl)ccc23)CC1 [Q_38a] | 153 | 108
2 | CN(CCCNc1ccnc2cc(Cl)ccc12)CCCN1c2ccccc2CCc2ccccc21 [RCQ_02, N′-(7-Chloro-quinolin-4-yl)-N-[3-(10,11-dihydro-dibenzo[b,f]azepin-5-yl)-propyl]-N-methyl-propane-1,3-diamine] | 240 | 132
3 | Clc1ccc2c(NCCCNCCCN(Cc3ccccc3)Cc3ccccc3)ccnc2c1 [RCQ_22] | 16 | 9
4 | Clc1ccc2c(NCCN3CCN(C(c4ccccc4)c4ccccc4)CC3)ccnc2c1 [RCQ_31] | 1900 | 528
5 | Clc1ccc(C(c2ccccc2)N2CCN(CCNc3ccnc4cc(Cl)ccc34)CC2)cc1 (stereo not drawn) [RCQ_32] | 538 | 412
6 | CN(CCCN1c2ccccc2CCc2ccccc21)CCNc1ccnc2cc(Cl)ccc12 [RCQ_33] | 173 | 151
7 | Clc1ccc2c(NCCCN3CCN(C(c4ccccc4)c4ccccc4)CC3)ccnc2c1 [RCQ_34] | 458 | 297
8 | Clc1ccc(C(c2ccccc2)N2CCN(CCCNc3ccnc4cc(Cl)ccc34)CC2)cc1 (stereo not drawn) [RCQ_35] | 200 | 133
9 | Clc1ccc2c(NCCN3CCCN(C(c4ccccc4)c4ccccc4)CC3)ccnc2c1 [RCQ_36] | 453 | 54
10 | Fc1ccc(C(c2ccc(F)cc2)N2CCN(CCCNc3ccnc4cc(Cl)ccc34)CC2)cc1 [RCQ_37F2] | 273 | 215
11 | Clc1ccc2c(NCCCN3CCC(=C4c5ccccc5C=Cc5ccccc54)CC3)ccnc2c1 [RCQ_42] | 523 | 611
12 | Clc1ccc2c(NCCN3CCCN(C4c5ccccc5-c5ccccc54)CC3)ccnc2c1 [RCQ_72] | 272 | 260
13 | Clc1ccc2c(NCCCN3CCCN(C(c4ccccc4)c4ccccc4)CC3)ccnc2c1 [RCQ_73] | 145 | 171
14 | Clc1ccc(C(c2ccccc2)N2CCCN(CCCNc3ccnc4cc(Cl)ccc34)CC2)cc1 (stereo not drawn) [RCQ_74] | 60 | 92
15 | Clc1ccc2c(NCCCN3CCCN(C4c5ccccc5-c5ccccc54)CC3)ccnc2c1 [RCQ_76] | 118 | 163
